Source: US11833204B2, “Visible light-activatable nanoparticles for cancer immunotherapy and use thereof” (KOREA INSTITUTE OF SCIENCE AND TECHNOLOGY, priority 2021, dated 2023)
Some entries share one result that the patent states for a list of compounds.

Assay: Morphological analysis by transmission electron microscopy in saline
Format: physicochemical
Settings: 1 mg in 1 mL physiological saline
Protocol: The self-assembled nanoparticles (LT-NPs) prepared in Example 1, doxorubicin (DOX), and verteporfin (VPF) were used as samples. 1 mg of each sample was mixed with physiological saline (1 mL). […] The self-assembled nanoparticles (LT-NPs) were mixed with cathepsin B (Cat-B) protease (50 μg/mL). The mixture was allowed to react for 24 h.

| Molecule | particle size (TEM) [nm] |
| --- | --- |
| verteporfin | > 500 |
| COc1cccc2c1C(=O)c1c(O)c3c(c(O)c1C2=O)C[C@@](O)(C(=O)CO)C[C@@H]3O[C@H]1C[C@H](N)[C@H](O)[C@H](C)O1 [doxorubicin] | > 500 |
